# Measurements reported in patent US7169592B2, “Producing optically active amino compounds” (Kaneka Corporation, priority 1997, dated 2007).
# The name of at least one read-out is uncertain.
# Tested on: Arthrobacter species KNK168 strain
# Experiment: Amino group donors in whole-cell transamination of 1-(3,4-dimethoxyphenyl)-2-propanone
# Format: cell-based
# Conditions: 1% amino group donor, 1% 1-(3,4-dimethoxyphenyl)-2-propanone, 0.1% Triton X-100, pH 8.5, 35° C., 20 hours
# Procedure: The cultured cells were harvested by centrifugation, and the harvested cells were suspended in a reaction mixture (pH 8.5) containing 1% 1-(3,4-dimethoxyphenyl)-2-propanone, 0.1% Triton X-100, and 1% an amino group donor shown in Table 5. The mixture was reacted at 35° C. for 20 hours.
row,Structure (SMILES),(R)-DMA Formed
1,CCOC(=O)[C@@H](C)N [D-Alanine ethyl ester],4.2%
2,COC(=O)[C@@H](C)N [D-Alanine methyl ester],3.5%
3,C[C@@H](N)C(=O)O [D-Alanine],3.0%
